# From PubChem BioAssay AID1259415 (National Center for Advancing Translational Sciences (NCATS), 2018)
# In all, about 410,000 compounds went through this assay and about 18,000 (4.4%) were called active. This list was built around the results that the source calls inconclusive (neither active nor inactive); the mix of calls is not that of the screen. No stated cut-off is given here; in the data, active means activity change below about -60%; inconclusive means no clear call, values can overlap the other calls; inactive means above about -39%.
# Test: qHTS Assay for inhibitors of the human cytomegalovirus (HCMV)
# Conditions: HFF cells, HCMV-luciferase reporter, 72 h; at 57.5 µM; stronger effect = lower value
# Outline: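 Cell-based, HFFs, 1000 cells/well, 16 h 37C; cpds in DMSO + HCMV-luc, MOI 1 PFU/cell; 72 h 37C; OneGlo luminescence after 5 min RT; norm. to buffer vs Salinomycin 10uM.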
# On the % scale 0 is the no-effect control and ±100 the full control effect.
row,SMILES,"activity change, negative = inhibition"
1,COc1cc(OC)c(N2CC(C(=O)NCCC3=CCCCC3)CC2=O)cc1Cl (centres undefined),inconclusive: -56.7%
2,Cc1nn(Cc2c(Cl)cccc2Cl)c(C)c1NC(=O)c1sc2ccccc2c1Cl,active: -84.6%
3,Cc1cc(C)c(S(=O)(=O)NCCCN2CCOCC2)cc1Br,inconclusive: -48.1%
4,O=S(=O)(Cc1cc(NCc2ccccc2)nc(-c2ccccn2)n1)c1ccccc1,inconclusive: -49.3%
5,CC(=O)c1c(C)[nH]c(C(=O)Nc2ccc(C)cc2Br)c1C,inactive: 82.2%
6,COCCn1c(SCc2nc3scc(-c4ccc(Cl)cc4)c3c(=O)[nH]2)nnc1-c1cccc(C)c1,inconclusive: -59.4%
7,CC1CN(CC(=O)c2ccccc2Cl)CC(C)O1 (centres undefined),active: -61.4%
8,Clc1ccccc1-c1nc2ccccc2c2nc3ccccc3n12,inconclusive: -56.3%
9,COc1ccc(NC(=S)Nc2ccc(OCc3ccccc3)cc2)cc1OC,inactive: 9%
10,CC(C)(C)OC(=O)N1CCC(Cc2cc(-c3ccc(Cl)cc3)no2)(C(=O)O)CC1,inactive: -7.28%
11,O=C(Nc1ccccn1)c1ccc(CN(c2ccccc2)S(=O)(=O)c2ccccc2)cc1,inconclusive: -48.1%
12,N#C/C(=C/c1cccc([N+](=O)[O-])c1)c1nnc2n1CCCCC2,active: -95.5%
13,Cc1c[nH]c2cccc(OCC(CNC(C)(C)C)OC(=O)c3ccccc3)c12 (centres undefined),inconclusive: -40.4%
14,Cc1nn(C)c(C)c1CNC(=O)c1nn2c(c1Cl)NC(c1cccs1)CC2C(F)(F)F (centres undefined),active: -85.6%
15,COc1ccc(-c2cn3nc(SCC(=O)Nc4cccc(C)c4C)ccc3n2)cc1,inactive: 85.5%
16,COc1ccccc1C(c1nnnn1CCc1ccccc1)N1CCCCCC1 (centres undefined),inconclusive: -41.5%
17,Cc1ccc(S(=O)(=O)CC(=O)Nc2ccccn2)cc1,active: -62.9%
18,CCN(CC(=O)NC(C)(C)C)C(=O)C(c1ccccc1)c1ccccc1,inconclusive: -50.1%
19,Cn1c(=O)oc2cc(S(=O)(=O)CCC(=O)NCc3ccc(Cl)cc3)ccc21,inactive: -0.688%
20,CCn1c(=O)cc(OCC(=O)N2CCCCCC2)c2ccccc21,inactive: 161%
21,O=C(Nc1cccn(Cc2c(Cl)cccc2Cl)c1=O)c1ccc(Cl)cc1,active: -83.3%
22,Oc1ccc(Br)cc1-c1nc2cnccn2c1NC1CCCCC1,inconclusive: -41%
23,COc1ccc(CNC(=O)c2cc(S(=O)(=O)N3CCCCC3)ccc2Cl)cc1OC,active: -64.2%

row,SMILES,"activity change, negative = inhibition"
1,CC(Sc1ccccc1)C(=O)N1CCN(S(=O)(=O)c2ccc(Cl)cc2)CC1 (centres undefined),inconclusive: -45.3%
2,Cc1cc(C)c2nc(N3CCCN(C(=O)c4ccco4)CC3)c(C#N)cc2c1,inactive: 11.9%
3,N=c1ccn(Cc2cccc(Cl)c2)cc1,active: -71%
4,COC(=O)[C@]12CCCCC=C1N(CCc1ccc(OC)c(OC)c1)C(=O)[C@H](CC(=O)NCCCCc1ccccc1)C2,inconclusive: -40.2%
5,Cc1nc2ccccc2c2oc(C(=O)Nc3ccc(C(C)C)cc3)cc12,active: -68.2%
6,O=C1OCC(CO)(CO)N=C1NNc1ccccc1Cl,active: -66.1%
7,CC(=O)Nc1ccc(N=c2cc([N+](=O)[O-])cc(Cl)n2O)cc1,active: -85%
8,Cc1cccc(CNC(=O)C2CCN(c3nn4cc(-c5ccc(F)cc5)nc4s3)CC2)c1,inactive: 0%
9,O=C(CNC(=O)c1ccc(Br)cc1)NCC(=O)OCC(=O)c1ccccc1,inconclusive: -42.5%
10,FC(F)Oc1cccc2cccnc12,inconclusive: -52.8%
11,CCc1ccccc1N(CC)C(=O)c1cc2c(s1)-c1ccccc1SC2,inconclusive: -43.9%
12,CC(Sc1nnnn1C)C(=O)Nc1ccccc1-c1ccccc1 (centres undefined),inconclusive: -43.1%
13,CC(=O)Nc1c2c(nn1-c1cccc(Cl)c1)CS(=O)(=O)C2,inconclusive: -45.6%
14,Cc1ccc2nc(SCC(=O)c3c(C)[nH]c4ccccc34)[nH]c2c1,inconclusive: -43.8%
15,COc1cc(C2c3c(oc4c(C)cc(C)cc4c3=O)C(=O)N2Cc2cccnc2)ccc1O (centres undefined),inactive: -10.9%
16,Cc1[nH]n(-c2ccccc2)c(=O)c1N=Nc1c(O)cc(S(=O)(=O)N(C)C)c2ccccc12,active: -99.5%
17,CCn1c(C)nc2cc(C(=O)NNC(=S)Nc3ccc(C)cc3)ccc21,inconclusive: -49.5%
18,Cc1ccc(Cl)cc1N1CCN(C(=O)CSc2ccsc2[N+](=O)[O-])CC1,inconclusive: -46.7%
19,COc1ccc(-c2noc(CN(C(=O)c3ccc(C)cc3C)C(C)C)n2)cc1,inactive: -3.53%
20,CCOC(=O)C1=NN(c2ccc([N+](=O)[O-])cc2)CC1C(=O)OC (centres undefined),inconclusive: -52%
21,COC(=O)c1cn(-c2ccc(F)cc2)c(=O)c2ccccc12,inconclusive: -41.7%
22,CS(=O)(=O)N1CCN(c2ccccc2NC(=O)c2ccc3ccccc3c2)CC1,inactive: -19.3%
23,COc1ccc(N2CCN(C(=O)Cc3csc(NC(=O)Nc4ccccc4OC)n3)CC2)cc1,inconclusive: -40.4%

row,SMILES,"activity change, negative = inhibition"
1,COCCCNC(=S)N1CCN(c2nc(-c3cccc(OC)c3)cs2)CC1,inconclusive: -51.6%
2,CC1CCCN(c2ccc(C(=O)Nc3cccnc3)cc2[N+](=O)[O-])C1 (centres undefined),inconclusive: -42.4%
3,COc1cccc(NC(=S)N2CCc3cc(OC)c(OC)cc3C2COc2ccc3c(C)cc(=O)oc3c2)c1 (centres undefined),inconclusive: -41.3%
4,Cn1c(=O)c2c(SCc3cccnc3)nc(CC(C)(C)C)nc2n(C)c1=O,inactive: -36%
5,CC(=O)c1cccc(NC(=O)CO/N=C2/CCCc3nonc32)c1,inconclusive: -41.2%
6,CCN(CC)c1ccc(NC(=O)COC(=O)COc2ccccc2[N+](=O)[O-])cc1,inactive: 72.8%
7,CC(=O)Nc1ccc(S(=O)(=O)c2ccc(N)cc2)cc1,inconclusive: -55.9%
8,COc1ccc(C2C(C(=O)Nc3ccccc3)=C(C)Nc3nc(-c4ccc(Cl)cc4)nn32)cc1 (centres undefined),inconclusive: -43%
9,COC(=O)Cc1c(CSc2ccccc2)oc2ccc(O)c(CN(C)C)c12,inconclusive: -49.1%
10,COC(=O)C(C(=O)OC)C(C)C(C(=O)OC)C(=O)OC,inconclusive: -50.3%
11,O=C1C(=C(I)I)c2ccccc2-c2ccccc21,active: -100%
12,O=C(/C=C/c1cccc2ccccc12)c1ccncc1,active: -82.7%
13,Cc1ccc(S(=O)(=O)/N=C(\c2ccccc2)N(C)S(=O)(=O)c2ccccc2)cc1,inconclusive: -45.9%
14,CCc1ccccc1N(CC(=O)N1CCCCC1)S(=O)(=O)c1ccccc1,inconclusive: -50.6%
15,O=C(CSc1nc2c([nH]c3ccccc32)c(=O)n1-c1ccccc1F)Nc1cccc(Cl)c1,inconclusive: -57.1%
16,CCOC(=O)c1sc2nc(C)[nH]c(=S)c2c1C,inconclusive: -53.7%
17,FC(F)C(F)(F)C1=CC(c2ccccc2)=NCCN1,inconclusive: -56.4%
18,COc1ccc(CCNc2ncnc3sc(C)cc23)cc1OC,active: -69.8%
19,Nn1c(Cc2ccc(Br)cc2)n[nH]c1=S,inconclusive: -51%
20,COc1cccc(N2CC(NC(=O)/C=C\c3ccccc3)CC2=O)c1 (centres undefined),inactive: 81.9%
21,COc1ccc(C(=O)Nn2c(CC(C)C)nc3cc(Cl)ccc3c2=O)c(OC)c1,inactive: 26.2%
22,CC(Nc1oc(-c2ccc(COc3ccccc3)o2)nc1C#N)c1ccccc1 (centres undefined),active: -79%
23,COc1ccc2nc3ccccc3nc2c1NC(=O)c1ccccc1Cl,inconclusive: -47.5%

row,SMILES,"activity change, negative = inhibition"
1,Cc1ccc(CSc2nnc3ccc(-c4ccncc4)nn23)cc1,active: -60.2%
2,Cc1oc(-c2cccs2)nc1CN1CCN(C2CCCC2)C(CCO)C1 (centres undefined),inconclusive: -49.4%
3,O=S(=O)(Nc1ccc(S(=O)(=O)N2CCCC2)cc1)c1ccc(F)cc1,inactive: -14.4%
4,CCOC(=O)N1CCN(C(=O)CC(=O)Nc2ccc3nc4n(c(=O)c3c2)CCCCC4)CC1,inactive: 50.8%
5,Cc1ccc(SCC(=O)c2c(C)nc3cc(C)ccn23)cc1,inconclusive: -47.5%
6,CC1CCC2(CC1)NC(=O)N(CC(=O)NCc1ccc3c(c1)OCO3)C2=O (centres undefined),inconclusive: 0%
7,COc1ccc2[nH]c3c(c2c1)CCN[C@H]3C,inconclusive: -56.2%
8,CC(O)CN=c1cc(-c2ccccc2)oc2ccc(Cl)cc12 (centres undefined),inconclusive: -54.7%
9,CC1CCN(C(=O)Cn2cc(SCC(=O)NCc3ccccc3)c3ccccc32)CC1,active: -84.5%
10,C=C(C)C1Cc2cc3ccc(=O)oc3cc2O1 (centres undefined),inactive: 115%
11,Oc1ccccc1C1=NC(c2ccccc2)NC(c2ccccc2)C1 (centres undefined),inconclusive: -50.1%
12,COC(=O)Cc1ccc(NC(=S)Nc2ccccn2)cc1,inconclusive: -50.6%
13,Nc1ccc(Br)cc1,inconclusive: -48.8%
14,CCOC(=O)c1cnc2ccc(OCC)cc2c1NCc1cccnc1,inconclusive: -43.4%
15,O=C(NN=C(c1ccccc1)c1ccccn1)c1ccccc1,active: -97.7%
16,Nc1ncc(Br)cc1S(=O)(=O)Nc1cc(C(F)(F)F)cc(C(F)(F)F)c1,active: -101%
17,CCOc1ccc(Nc2ccnc3cc(Cl)ccc23)cc1,active: -62.1%
18,O=C(Nc1ccn(Cc2c(F)c(F)cc(F)c2F)n1)c1ccc(COc2ccccc2Cl)cc1,active: -70.8%
19,COc1ccccc1Nc1nn2c(=O)c3ccc(C(=O)NCCc4ccccc4)cc3nc2s1,active: -99.2%
20,CCN(CC)S(=O)(=O)c1cccc(NC(=O)COC(=O)c2[nH]c(C)c(C(C)=O)c2C)c1,active: -85%

# Another view of 4 compounds above:
row | SMILES | activity change, negative = inhibition
8 | COc1ccc(C2C(C(=O)Nc3ccccc3)=C(C)Nc3nc(-c4ccc(Cl)cc4)nn32)cc1 (centres undefined) | inconclusive: -43%
9 | COC(=O)Cc1c(CSc2ccccc2)oc2ccc(O)c(CN(C)C)c12 | inconclusive: -49.1%
10 | COC(=O)C(C(=O)OC)C(C)C(C(=O)OC)C(=O)OC | inconclusive: -50.3%
11 | O=C1C(=C(I)I)c2ccccc2-c2ccccc21 | active: -100%
